Assay results published in the M2OR odorant receptor database.
This is a selection; strong and weak results do not stand in their true shares. Calls are pooled over several reports, among them a noisy single-well screen. The list shows a part of the results. The list shows a part of the results.

Assays:
Settings in all cases: stereoisomer not certain
[1] = biological target: T1, OR5AN1 (Homo sapiens) (UniProt Q8NGI8)
T1 sequence (whole entry): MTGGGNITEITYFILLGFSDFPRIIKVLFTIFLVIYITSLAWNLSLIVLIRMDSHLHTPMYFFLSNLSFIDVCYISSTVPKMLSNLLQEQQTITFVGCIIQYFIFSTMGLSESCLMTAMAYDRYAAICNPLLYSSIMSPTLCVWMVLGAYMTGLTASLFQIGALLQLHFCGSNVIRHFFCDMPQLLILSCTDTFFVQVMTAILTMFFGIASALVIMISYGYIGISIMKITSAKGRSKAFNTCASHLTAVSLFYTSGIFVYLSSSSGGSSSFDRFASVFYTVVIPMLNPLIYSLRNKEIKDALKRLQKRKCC
Summary of the method: (§1)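 Assay methods differ from source to source, frequently being transient luciferase assays in mammalian cell lines. For each receptor–molecule pair, the label responsive (active) applies when the original authors judged the measured signal statistically different from baseline, and non-responsive (inactive) applies otherwise.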

[2] = biological target: T2, OR5AR1 (Homo sapiens) (UniProt Q8NGP9)
T2 sequence (whole entry): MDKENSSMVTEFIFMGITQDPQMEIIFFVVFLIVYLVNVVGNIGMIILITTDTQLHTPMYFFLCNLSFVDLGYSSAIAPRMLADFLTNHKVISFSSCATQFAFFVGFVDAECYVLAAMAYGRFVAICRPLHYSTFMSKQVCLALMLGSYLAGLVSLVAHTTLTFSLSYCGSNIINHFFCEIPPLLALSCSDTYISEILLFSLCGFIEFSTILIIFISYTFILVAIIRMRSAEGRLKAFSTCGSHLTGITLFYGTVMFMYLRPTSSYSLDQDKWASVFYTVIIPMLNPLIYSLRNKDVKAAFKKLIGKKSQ
Summary of the method: as §1

[3] = biological target: T3, OR5AS1 (Homo sapiens) (UniProt Q8N127)
T3 sequence (whole entry): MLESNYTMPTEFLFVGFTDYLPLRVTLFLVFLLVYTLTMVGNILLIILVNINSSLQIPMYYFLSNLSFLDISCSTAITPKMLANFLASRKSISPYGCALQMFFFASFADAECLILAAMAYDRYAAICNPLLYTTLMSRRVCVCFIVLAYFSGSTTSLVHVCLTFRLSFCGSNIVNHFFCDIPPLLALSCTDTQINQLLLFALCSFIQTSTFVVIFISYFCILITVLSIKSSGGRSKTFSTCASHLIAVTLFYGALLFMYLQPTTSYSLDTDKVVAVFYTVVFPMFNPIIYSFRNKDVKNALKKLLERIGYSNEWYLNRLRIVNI
Summary of the method: as §1

[4] = biological target: T4, OR5AU1 (Homo sapiens) (UniProt Q8NGC0)
T4 sequence (whole entry): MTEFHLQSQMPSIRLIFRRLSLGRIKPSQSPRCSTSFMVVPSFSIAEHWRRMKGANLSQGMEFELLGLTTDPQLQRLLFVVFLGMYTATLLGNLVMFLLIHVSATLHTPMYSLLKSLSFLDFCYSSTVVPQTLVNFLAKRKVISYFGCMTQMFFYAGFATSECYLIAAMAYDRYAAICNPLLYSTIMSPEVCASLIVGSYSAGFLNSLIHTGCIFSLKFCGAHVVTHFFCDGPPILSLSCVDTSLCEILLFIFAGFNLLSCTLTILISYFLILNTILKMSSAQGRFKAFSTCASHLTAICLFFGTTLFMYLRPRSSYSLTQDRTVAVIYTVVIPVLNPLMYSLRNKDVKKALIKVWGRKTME
Summary of the method: as §1

[5] = biological target: T5, OR5B17 (Homo sapiens) (UniProt Q8NGF7)
T5 sequence (whole entry): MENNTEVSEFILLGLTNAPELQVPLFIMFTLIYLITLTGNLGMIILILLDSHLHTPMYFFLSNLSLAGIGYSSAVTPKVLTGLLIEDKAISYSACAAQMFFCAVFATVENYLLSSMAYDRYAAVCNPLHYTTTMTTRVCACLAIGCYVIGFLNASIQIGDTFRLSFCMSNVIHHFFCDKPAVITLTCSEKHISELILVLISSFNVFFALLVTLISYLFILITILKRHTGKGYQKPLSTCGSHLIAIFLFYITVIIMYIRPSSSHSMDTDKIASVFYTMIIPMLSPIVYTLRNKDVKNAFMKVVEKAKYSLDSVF
Summary of the method: as §1

[6] = tested on: T6, OR5B2
T6 sequence (whole entry): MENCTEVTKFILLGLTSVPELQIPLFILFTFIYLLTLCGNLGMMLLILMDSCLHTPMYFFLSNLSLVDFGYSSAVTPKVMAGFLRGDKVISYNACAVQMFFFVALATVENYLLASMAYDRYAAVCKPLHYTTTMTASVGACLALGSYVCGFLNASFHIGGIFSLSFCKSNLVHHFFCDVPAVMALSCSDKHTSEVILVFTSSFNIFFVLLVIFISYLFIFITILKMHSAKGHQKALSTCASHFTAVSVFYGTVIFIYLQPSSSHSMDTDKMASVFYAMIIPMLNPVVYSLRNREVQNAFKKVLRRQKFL
Summary of the method: as §1

[7] = biological target: T7, OR5B3 (Homo sapiens) (UniProt Q8NH48)
T7 sequence (whole entry): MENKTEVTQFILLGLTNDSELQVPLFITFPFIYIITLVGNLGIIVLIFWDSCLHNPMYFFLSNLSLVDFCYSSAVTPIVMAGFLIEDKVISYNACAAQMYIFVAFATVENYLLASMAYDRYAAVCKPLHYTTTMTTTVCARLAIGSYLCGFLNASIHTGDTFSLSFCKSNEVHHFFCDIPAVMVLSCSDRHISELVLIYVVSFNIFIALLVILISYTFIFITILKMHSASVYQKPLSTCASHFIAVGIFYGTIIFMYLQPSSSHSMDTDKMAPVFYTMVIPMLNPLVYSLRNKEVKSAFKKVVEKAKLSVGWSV
Summary of the method: as §1

[8] = tested on: T8, OR5BC
T8 sequence (whole entry): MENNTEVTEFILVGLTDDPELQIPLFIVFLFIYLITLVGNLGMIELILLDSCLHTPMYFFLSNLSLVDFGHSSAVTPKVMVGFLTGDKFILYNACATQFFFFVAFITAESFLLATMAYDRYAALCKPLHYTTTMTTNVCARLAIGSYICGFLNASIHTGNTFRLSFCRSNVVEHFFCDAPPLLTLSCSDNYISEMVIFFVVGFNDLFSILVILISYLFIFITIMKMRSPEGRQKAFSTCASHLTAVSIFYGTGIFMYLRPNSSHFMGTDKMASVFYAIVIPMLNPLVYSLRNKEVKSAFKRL
Summary of the method: as §1

[9] = tested on: T9, OR5BL
T9 sequence (whole entry): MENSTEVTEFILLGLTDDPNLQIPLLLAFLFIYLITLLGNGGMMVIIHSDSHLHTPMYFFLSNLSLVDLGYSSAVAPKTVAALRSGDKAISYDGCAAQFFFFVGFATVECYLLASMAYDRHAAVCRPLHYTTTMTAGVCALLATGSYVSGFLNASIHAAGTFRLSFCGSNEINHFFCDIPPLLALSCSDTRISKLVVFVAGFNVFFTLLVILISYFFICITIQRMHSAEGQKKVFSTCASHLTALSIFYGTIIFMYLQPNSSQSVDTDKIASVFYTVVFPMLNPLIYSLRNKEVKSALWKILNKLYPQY
Summary of the method: as §1

[10] = biological target: T10, OR5C1 (Homo sapiens) (UniProt Q8NGR4)
T10 sequence (whole entry): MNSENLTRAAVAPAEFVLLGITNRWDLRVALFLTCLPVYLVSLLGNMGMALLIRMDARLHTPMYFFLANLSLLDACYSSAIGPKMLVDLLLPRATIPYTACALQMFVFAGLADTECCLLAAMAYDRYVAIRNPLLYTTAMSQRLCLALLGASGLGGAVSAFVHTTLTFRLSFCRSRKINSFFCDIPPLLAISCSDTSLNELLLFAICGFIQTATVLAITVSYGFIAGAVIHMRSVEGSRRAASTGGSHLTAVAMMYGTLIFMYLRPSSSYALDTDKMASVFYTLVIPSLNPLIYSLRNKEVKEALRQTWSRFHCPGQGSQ
Summary of the method: as §1

[11] = tested on: T11, OR5DD
T11 sequence (whole entry): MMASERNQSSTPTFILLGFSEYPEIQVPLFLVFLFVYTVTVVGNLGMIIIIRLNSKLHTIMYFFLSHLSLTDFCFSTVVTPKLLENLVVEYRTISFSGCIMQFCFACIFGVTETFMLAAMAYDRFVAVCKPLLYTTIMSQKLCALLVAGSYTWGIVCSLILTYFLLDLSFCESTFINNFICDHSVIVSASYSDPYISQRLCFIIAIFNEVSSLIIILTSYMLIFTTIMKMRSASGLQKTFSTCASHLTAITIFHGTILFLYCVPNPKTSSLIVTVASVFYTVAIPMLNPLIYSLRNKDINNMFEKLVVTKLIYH
Summary of the method: as §1

[12] = tested on: T12, OR5DE
T12 sequence (whole entry): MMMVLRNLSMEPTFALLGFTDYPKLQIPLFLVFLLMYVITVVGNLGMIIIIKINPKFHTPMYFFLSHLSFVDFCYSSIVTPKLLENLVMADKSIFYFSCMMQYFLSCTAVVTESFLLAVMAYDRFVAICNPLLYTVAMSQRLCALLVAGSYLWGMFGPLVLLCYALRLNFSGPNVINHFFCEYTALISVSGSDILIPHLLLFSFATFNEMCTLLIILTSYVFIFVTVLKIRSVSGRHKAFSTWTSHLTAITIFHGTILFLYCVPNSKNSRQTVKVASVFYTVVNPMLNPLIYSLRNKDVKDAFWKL
Summary of the method: as §1

Structure (SMILES)	odorant receptor agonist call [1]	odorant receptor agonist call [2]	odorant receptor agonist call [3]	odorant receptor agonist call [4]	odorant receptor agonist call [5]	odorant receptor agonist call [6]	odorant receptor agonist call [7]	odorant receptor agonist call [8]	odorant receptor agonist call [9]	odorant receptor agonist call [10]	odorant receptor agonist call [11]	odorant receptor agonist call [12]
c1cnccn1	inactive	inactive	inactive	inactive	inactive	inactive	inactive	inactive	inactive	inactive	inactive	inactive
CC12CCC(CC1)C(C)(C)O2	inactive	inactive	inactive	inactive	inactive	inactive	inactive	inactive	inactive	inactive	inactive	inactive
CCCCCCCCCC=O	inactive	inactive	inactive	inactive	inactive	inactive	inactive	inactive	inactive	inactive	inactive	inactive
CC(C)(O)CCCC1=CCC(C=O)CC1 (centres undefined)	–	–	–	–	–	–	–	inactive	–	–	–	–
O=C1CCCCCCCCCCCCCCO1	–	inactive	inactive	inactive	inactive	inactive	inactive	inactive	inactive	inactive	inactive	inactive
COC(=O)c1ccccc1	inactive	inactive	inactive	inactive	inactive	inactive	inactive	–	inactive	inactive	inactive	–
CC(=O)c1ccccc1	inactive	inactive	inactive	inactive	inactive	inactive	inactive	–	inactive	inactive	inactive	–
O=CCc1ccccc1	inactive	inactive	inactive	inactive	inactive	inactive	inactive	inactive	inactive	inactive	inactive	inactive
CC(C)CC(=O)O	inactive	inactive	inactive	inactive	inactive	inactive	inactive	inactive	inactive	inactive	inactive	inactive
CC1=NC(C)SC1C (centres undefined)	inactive	inactive	inactive	inactive	inactive	inactive	inactive	–	inactive	inactive	inactive	–
CCCCCCOC(=O)CCC	inactive	inactive	inactive	inactive	inactive	inactive	inactive	inactive	inactive	inactive	inactive	inactive
CCCCCCCOC(C)=O	inactive	inactive	inactive	inactive	inactive	inactive	inactive	inactive	inactive	inactive	inactive	inactive
CC(=O)C(C)=O	inactive	inactive	inactive	inactive	inactive	inactive	inactive	inactive	inactive	inactive	inactive	inactive
O=C1CCCCC1	inactive	inactive	active	inactive	inactive	inactive	inactive	–	inactive	inactive	inactive	inactive
